To fix the notation:
T1: GFP-SKD1 (SUPPRESSOR OF K(+) TRANSPORT GROWTH DEFECT 1) (A. thaliana) (UniProt Q9ZNT0)
T1 sequence: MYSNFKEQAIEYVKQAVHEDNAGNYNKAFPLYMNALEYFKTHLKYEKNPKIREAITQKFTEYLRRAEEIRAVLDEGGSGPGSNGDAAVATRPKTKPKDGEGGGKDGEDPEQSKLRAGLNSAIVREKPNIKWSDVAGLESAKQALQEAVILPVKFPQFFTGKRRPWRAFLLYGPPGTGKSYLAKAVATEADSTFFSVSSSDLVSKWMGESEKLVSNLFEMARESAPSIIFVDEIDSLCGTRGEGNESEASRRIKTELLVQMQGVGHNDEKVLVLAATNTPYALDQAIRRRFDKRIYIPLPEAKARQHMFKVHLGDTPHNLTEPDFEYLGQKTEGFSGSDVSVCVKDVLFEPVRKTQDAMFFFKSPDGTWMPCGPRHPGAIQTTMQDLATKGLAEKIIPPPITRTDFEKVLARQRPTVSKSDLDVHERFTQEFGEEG

B1: CHARGED MULTIVESICULAR BODY PROTEIN 1A (protein, UniProt Q8LE58 1-203)
chain: MGNTDKLMNQIFELKFTSKSLQRQARKCEKEERSEKLKVKKAIEKGNMDGARIYAENAIRKRSEQMNYLRLSSRLDAVVARLDTQAKMATITKSMTNIVKSLESSLTTGNLQKMSETMDSFEKQFVNMEVQAEFMDNAMAGSTSLSTPEGEVNSLMQQVADDYGLEVSVGLPQPAGHAIPTKTEEKVEEDDLTRRLAELKARG
B2: VACUOLAR PROTEIN SORTING 41 (protein, UniProt P93043 1-980)
chain: MAAVPPENGVDGDDEREEEEEDEEEEEEEEEEENGDEAEEEPRLKYQRMGGNVPALLSNDAASCIAVAARMIALGTHDGTVRILDLLGNQVKEFRAHTAPVNDINFDTEGEYIGSCSDDGSVVINSLFTDDEKMKFDYHRPMKAISLDPDYTKKQSKRFVAGGLAGHLYMNSKKWFGNKDQVLHSGEGPIHSVKWRGSLIAWANDVGVKVYDTAKDQRVTFIEKPRGSPRPEALLPHLVWQDDTLLVIGWGTSVKIASIKSDQQQTGTFRQIQMSSLTQVDIVASFQTSYYISGIAPFGDSLVILAYIPIEGDGEKEFSSTTTLSRQGNAQRPEIRIVSWNNDELTMDALPVHGFEHYKAKDYSLAHAPFPGSSYAGGQWAAGDEPLYYIVSPKDVVIAKPRDAEDHINWLLQHGFHEKALAAVEASEGRTELIDKVGAGYLDHLIVERKYAEAASLCPKLLRGSASAWERWVFHFAQLRQLPVLVPYMPTDNPRLKDTVYEVALVALATNPSYHKELLSAVKSWPRSVYSALTVISAIEPQLNTSSMTDALKEALAELYVIDGQYQKAFSLYADLLKPEVFDFIEKYSLHEAIRGKVVQLMLLDCKRATVLFIQNRDLIPPSEVVPQLLKAGKNPQVLKAGKKCDSRYYLYLYLHALFEVSHDTGKDFHDMQVELYAEYDTKMLLPFLRSSQHYKLEKAYELCVKKDFLREQVFVLGRMGNAKQALAVIINKLGDIEEAVEFVSMQHDDDLWEELIKQCLNKPEMVGLLLEHTVGNLDPLYIVNMVPNGLEIPRLRDRLVKIVTDYRTETSLRHGCNDILKTDIVNLLVKCFNEARRGVCLSHEDDDSRAKREDNNRSSFSQRMVVDKSLSIKMTEVKSKTRGDTRCCMCFDPVSIRGDTVVVFFCCHAYHETCLMDAAFSNNNHKTTKGSSGYEYSYDNGVDEEEEDEEEDEDGDGDRPGRSRLRCILCTTAAAASAR
B3: UBIQUITIN-SPECIFIC PROTEASE 12 (protein, UniProt Q9FPT1 1-1116)
chain: MTMMTPPPVDQPEDEEMLVPNSDLVDGPAQPMEVTQPETAASTVENQPAEDPPTLKFTWTIPNFSRQNTRKHYSDVFVVGGYKWRILIFPKGNNVDHLSMYLDVSDAASLPYGWSRYAQFSLAVVNQIHTRYTVRKETQHQFNARESDWGFTSFMPLSELYDPSRGYLVNDTVLVEAEVAVRKVLDYWSYDSKKETGFVGLKNQGATCYMNSLLQTLYHIPYFRKAVYHMPTTENDAPTASIPLALQSLFYKLQYNDTSVATKELTKSFGWDTYDSFMQHDVQELNRVLCEKLEDKMKGTVVEGTIQQLFEGHHMNYIECINVDFKSTRKESFYDLQLDVKGCKDVYASFDKYVEVERLEGDNKYHAEGHGLQDAKKGVLFIDFPPVLQLQLKRFEYDFMRDTMVKINDRYEFPLELDLDREDGKYLSPDADRSVRNLYTLHSVLVHSGGVHGGHYYAFIRPTLSDQWYKFDDERVTKEDLKRALEEQYGGEEELPQTNPGFNNNPPFKFTKYSNAYMLVYIRESDKDKIICNVDEKDIAEHLRVRLKKEQEEKEDKRRYKAQAHLYTIIKVARDEDLKEQIGKDIYFDLVDHDKVRSFRIQKQTPFQQFKEEVAKEFGVPVQLQRFWIWAKRQNHTYRPNRPLTPQEELQPVGQIREASNKANTAELKLFLEVEHLDLRPIPPPEKSKEDILLFFKLYDPEKAVLSYAGRLMVKSSSKPMDITGKLNEMVGFAPDEEIELFEEIKFEPCVMCEHLDKKTSFRLCQIEDGDIICFQKPLVNKEIECLYPAVPSFLEYVQNRQLVRFRALEKPKEDEFVLELSKQHTYDDVVEKVAEKLGLDDPSKLRLTSHNCYSQQPKPQPIKYRGVDHLSDMLVHYNQTSDILYYEVLDIPLPELQGLKTLKVAFHHATKEEVVIHNIRLPKQSTVGDVINELKTKVELSHPDAELRLLEVFYHKIYKIFPSTERIENINDQYWTLRAEEIPEEEKNIGPNDRLILVYHFAKETGQNQQVQNFGEPFFLVIHEGETLEEIKNRIQKKLHVSDEDFAKWKFAFMSMGRPEYLQDTDVVYNRFQRRDVYGAFEQYLGLEHADTTPKRAYAANQNRHAYEKPVKIYN
B4: VACUOLELESS1 (protein, UniProt Q93VQ0 1-858)
chain: MANVSVAAEWQLLYDRYYRKPEIYQMKWKHVDLSRNKVACASFGGPIAVIRDDSKIVQLYAESALRKLRIFNSAGILLSETVWKHPGGRLIGMSWSDDQTLICIVQDGTIYRYNIHAELIEPNMSMGQECFEQNVVECVFWGNGVVCLTEGGQLICIFDFKTMKPSKLPDVPGLAEDDLLQPICLTVREPKYTMSGIAEVLVAVGDDIFVVEEDMVQTIRFDEPSVDDSEMQNDDSGNLIGVVQKMIVSPNGKFLTLFTHDGRIVVVDMETKQIAIDYSCESALPPQQMAWCGMDSVLLYWDEDLMMVGPVGDPVHYFYDEPIILIPECDGVRILSNTNLEFLQRVPDSTESIFKIGSTSPAALLYDALDHFDRRSAKADENLRLIRSSLSEAVESCIDAAGHEFDVTRQRALLRAASYGQAFCSNFQRERVQETCRTLRVLNAVRDPAIGIPLSIQQYKLLTPVVLISRLINANCHLLALRISEYLDMNKEVVIMHWACAKITASPSTPDSHLLEILLDKLQLCKGISYAAVATHADNCGRRKLAAMLVEHEPRSTKQVPLLLSIGEEDTALVKATESGDTDLVYLVIFHIWQKRPPLEFFAMIQGRVLARDLFVAYARCHKHEFLKDFFLSTGQIHEVAFLLWKESWDMGKNPMASKGSPLHGPRIKLIEKARNLFSQTKEHTFESKAAEEHAKLLKIQHELEASTKQAIFVDSSINDTIRTCIVLGNNRAAIKVKTEFKVSDKRWYWLKAFALATIKDWAALEKFSKEKRPPMGFRPFVEACIDADEKAEALKYIPKLSDLVERGEAYARIGMAKEAADCAAQANDGGELLERFRKTFVQNAIFDTLLMPFQGAS
B5: VACUOLAR PROTEIN SORTING 18 (protein, UniProt F4IDS7 1-988)
chain: MDQGRQVFSVDLLERYATKNRGMITCMAAGNDVIVLGTSKGWIIRYDFGVGSSNDIDLAVGRTGEQSIHKVFVDPGGSHCIATVTGVGGAETFYTHAKWLKPRVLSRLKGLLVNAVAWNRQQITEVSTKEIILGTQDGQLFEMAVDEKDKREKYIKFLFELEELPEAFKALQMETANISSGMRYYVMAVTPTRLYSFTGIGTLESVFASYKERAVHFMELPGEIPNSELHFFIKQRRAVHFAWLSGTGIYHGGLNFGAQHSYPNGDENFVENKALLDYSKLSDGTEAVKPGSMALSEYHFLLLIGNKVKVVNRISEQIIEELQFDITSDSVSRGIIGLCSDASANVFYAYDQNSIFQVSVIDEGRDMWKVYLDLKVYAAALANCRDPLQRDQVYLVQAESAFTDKEYLRAASFYAKINYVISFEEVTLKFISINEPEALRTFLLHKLDNLSKDDKCQITMISTWATELYLDKINRLLLEDDTAIENRDSEYHSVIQEFRAFMSDCKDELDEATTVKILESYGRVEELVYFANLKEQYEIVVLHYIQQGEAKKALEVLQKSSVSVELQYQFAPELIMLDAYETVESWMANKNLNPRRLITAMMRYSSGPHAKNETHEVIKYLEFCVHRLHNEDPGIHSLLLSLYAKQEDDGALLRFLQCKFGKGRENGPEFFYDPKYALRLCLKERRTRACVHIYSMMSMHEEAVALALQIDPELAMAEADKVEDDEDLRKKLWLMVAKHVVKQEKGAKRENIRKAIAFLKETDGLLKIEDILPFFPDFALIDDFKEAICSSLEDYNKQIEQLKEEMNDATRGADNIRNDISALTQRYAVIDRDEECGVCKRKILMMSGDFRMAQGYSSAGPLAPFYVFPCGHSFHAQCLITHVTSCAHEEQAEHILDLQKQLTLLGSETRRDINGNRSDEPITSTTTADKLRSELDDAIASECPFCGELMINEITLPFIKPEDSQYSTSWDLRSETNLANQRTISLPV
B6: NUCLEAR TRANSPORT FACTOR 2FAMILY PROTEIN (protein, UniProt Q9FME2 1-460)
chain: MAQQEASPSPGAEVVGRAFVEQYYHILHQSPGLVHRFYQDSSFLTRPDVTGAVTTVTTMQAINDKILSLKYEDYTAEIETADAQESHERGVIVLVTGRLTGNDNVRKKFSQSFFLAPQDKGYFVLNDVFRFLEEKEVTAQARSVPINGTTRDVQAPIEPERVVVSHEPEVEPEPVASIEEEDLDNVAEVYDPSDKDEGVVVDVEPIEPPTQISHNEILSVPQGDAPKHSYASILKQMKSSPAPTTHVARNKPRPAPVNQKLTAPPAEPAARPEASAHENVPNSSHVDVEDDGHSIYVRNLPFDSTPTQLEEVFKNFGAIKHEGIQVRSNKQQGFCFGFVEFETSSGKQSALEASPVTIGDRQAVVEEKKTNSRGGGNNGGSRGRYFSGRGSFRNESFKGGRGGGGRGGYGRGGGEFSGRPKSSNPRNGGEGYQRVPQNGGGGRGGRGEGGRGGARGGGSS
B7: Calmodulin-binding transcription activator 5 (protein, UniProt O23463 1-923)
chain: MAGVDSGKLIGSEIHGFHTLQDLDIQTMLDEAYSRWLRPNEIHALLCNHKFFTINVKPVNLPKSGTIVLFDRKMLRNFRKDGHNWKKKKDGKTIKEAHEHLKVGNEERIHVYYAHGEDTPTFVRRCYWLLDKSQEHIVLVHYRETHEVHAAPATPGNSYSSSITDHLSPKIVAEDTSSGVHNTCNTGFEVRSNSLGSRNHEIRLHEINTLDWDELLVPADISNQSHPTEEDMLYFTEQLQTAPRGSVKQGNHLAGYNGSVDIPSFPGLEDPVYQNNNSCGAGEFSSQHSHCGVDPNLQRRDFSATVTDQPGDALLNNGYGSQDSFGRWVNNFISDSPGSVDDPSLEAVYTPGQDSSTPPTVFHSHSDIPEQVFNITDVSPAWAYSTEKTKILVTGFFHDSFQHLGRSNLICICGELRVPAEFLQMGVYRCFLPPQSPGVVNLYLSVDGNKPISQLFSFEHRSVQFIEKAIPQDDQLYKWEEFEFQVRLAHLLFTSSNKISVLTSKISPENLLEAKKLASRTSHLLNSWAYLMKSIQANEVPFDQARDHLFELTLKNRLKEWLLEKVIENRNTKEYDSKGLGVIHLCAVLGYTWSILLFSWANISLDFRDKQGWTALHWAAYYGREKMVAALLSAGARPNLVTDPTKEFLGGCTAADLAQQKGYDGLAAFLAEKCLVAQFKDMQTAGNISGNLETIKAEKSSNPGNANEEEQSLKDTLAAYRTAAEAAARIQGAFREHELKVRSSAVRFASKEEEAKNIIAAMKIQHAFRNFEVRRKIAAAARIQYRFQTWKMRREFLNMRKKAIRIQAAFRGFQVRRQYQKITWSVGVLEKAILRWRLKRKGFRGLQVSQPDEKEGSEAVEDFYKTSQKQAEERLERSVVKVQAMFRSKKAQQDYRRMKLAHEEAQLEYDGMQELDQMATEES

Results are given in words; binding and its absence hold for the method and conditions named. In cells and extracts the contact can be indirect. A yes stands for co-enrichment or nearness to the bait. Other partners may have been found. Where a sequence is shown, tags or fusion partners need not be part of it.

Seven molecules from PMC8264791 can be followed below.

In this assay the target is T1, GFP-SKD1 (SUPPRESSOR OF K(+) TRANSPORT GROWTH DEFECT 1) (A. thaliana). Briefly: affinity purification with mass spectrometry; GFP-SKD1 immunoprecipitated with the GFP Isolation kit (Miltenyi Biotec; anti-GFP magnetic beads) from extracts of rosette leaves of 35S::GFP-SKD1 plants, heat-treated or kept at RT; on-bead digest, LC-MS/MS; 35S::YFP line as negative control; 3 replicates each.
As to B1, the binding result is listed as “binds”.
Regarding B2, the binding result is reported as “binds”.
B3: the binding entry is “binds”.
As to B4, the binding result is reported as “binds”.
The same measure for B5: “binds”; for B6: “binds”.
As for B7, the binding result was “binds”.
